Laboratory results as given in PMC11535546.

Amino acid sequences for entries named in this document (tags omitted). A change or cut given only in a name is not applied to a line headed by its entry.
UniProt Q86WV6: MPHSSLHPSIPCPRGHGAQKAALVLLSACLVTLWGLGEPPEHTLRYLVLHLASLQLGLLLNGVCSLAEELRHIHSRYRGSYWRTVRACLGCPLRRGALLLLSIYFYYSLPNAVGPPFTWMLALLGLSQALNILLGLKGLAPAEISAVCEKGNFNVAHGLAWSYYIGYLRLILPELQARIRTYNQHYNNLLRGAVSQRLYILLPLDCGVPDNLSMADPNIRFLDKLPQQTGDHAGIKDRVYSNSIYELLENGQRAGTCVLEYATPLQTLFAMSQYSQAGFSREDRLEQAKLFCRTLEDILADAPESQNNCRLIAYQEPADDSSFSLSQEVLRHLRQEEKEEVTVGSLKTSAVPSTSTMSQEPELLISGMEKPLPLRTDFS

Assays:
[1] = molecular target: STING, wild-type, stably expressed in DLD1 cells (human) (UniProt Q86WV6); assay: affinity purification with mass spectrometry; STING, wild-type or R281Q, stably expressed in DLD1 cells; STING interactome by nano LC/MS/MS, label-free quantification
[2] = molecular target: constitutively activated STING (R281Q), stably expressed in DLD1 cells (human) (UniProt Q86WV6); assay: as above

binding [1]: binds
binding [2]: binds
B1: Zyxin, endogenous in DLD1 cells (protein, UniProt Q15942 1-572)
chain: MAAPRPSPAISVSVSAPAFYAPQKKFGPVVAPKPKVNPFRPGDSEPPPAPGAQRAQMGRVGEIPPPPPEDFPLPPPPLAGDGDDAEGALGGAFPPPPPPIEESFPPAPLEEEIFPSPPPPPEEEGGPEAPIPPPPQPREKVSSIDLEIDSLSSLLDDMTKNDPFKARVSSGYVPPPVATPFSSKSSTKPAAGGTAPLPPWKSPSSSQPLPQVPAPAQSQTQFHVQPQPQPKPQVQLHVQSQTQPVSLANTQPRGPPASSPAPAPKFSPVTPKFTPVASKFSPGAPGGSGSQPNQKLGHPEALSAGTGSPQPPSFTYAQQREKPRVQEKQHPVPPPAQNQNQVRSPGAPGPLTLKEVEELEQLTQQLMQDMEHPQRQNVAVNELCGRCHQPLARAQPAVRALGQLFHIACFTCHQCAQQLQGQQFYSLEGAPYCEGCYTDTLEKCNTCGEPITDRMLRATGKAYHPHCFTCVVCARPLEGTSFIVDQANRPHCVPDYHKQYAPRCSVCSEPIMPEPGRDETVRVVALDKNFHMKCYKCEDCGKPLSIEADDNGCFPLDGHVLCRKCHTARAQT

Results are given in words; binding and its absence hold for the method and conditions named. In cells and extracts the contact can be indirect. Here binding means that the protein was enriched with, or labelled near, the bait; the list need not be complete.
